Among all 300,000 compounds or so, about 3,700 (1.2%) were called active. This list was built around the results that the source calls inconclusive (neither active nor inactive); the mix of calls is not that of the screen. Calls follow the shape of the full dose curve; tested in HEK293 cells. A potency beside an inconclusive call is a rough fit, not a confirmed value.
Test: qHTS for Inhibitors of binding or entry into cells for Lassa Virus; also: nearly all actives have a fitted effect of over 50% in size
Conditions: Lassa virus pseudotype entry inhibition, cell reporter; activity change, negative = inhibition: at 37.9 µM (top of the series) unless noted
% is scaled to controls: 0 for no effect and ±100 for the full control effect; potency is read from the fitted curve at half-maximal effect.

SMILES | Potency | activity change, negative = inhibition
COc1ccc(-c2nnn(CC(=O)N(CC(=O)NC3CCCC3)Cc3ccco3)n2)cc1OC | inconclusive: 0.891 µM [inhibitor, single point] | 
CCOc1ccccc1CN1C(=O)NC2(CCCCCC2)C1=O | inconclusive: 5.62 µM [inhibitor, full curve, poor fit] | 
COc1cc(/C=C/c2cc(OC(C)=O)c3ccccc3n2)c(OC(C)=O)c([N+](=O)[O-])c1 | inconclusive: 29.1 µM [inhibitor, single point] | 
CCC(Sc1ncnc2c1c(-c1ccccc1)cn2-c1ccc(OC)cc1)C(=O)OC (stereo unspecified) | inconclusive: 1.78 µM [inhibitor, full curve] | 
Cc1ccc(N2C(=O)c3ccccc3C2C(=O)c2ccc(O)cc2O)cc1 (stereo unspecified) | inconclusive: 35.5 µM [inhibitor, single point] | 
Cc1cccc(OCC(=O)Nc2ccc(Cl)c(-c3nc4ncccc4o3)c2)c1C | inconclusive: 8.91 µM [inhibitor, partial curve, poor fit] | 
CCOP(=O)(c1ccccc1)c1nc(-c2ccccc2C)oc1N1CCCCC1 (stereo unspecified) | inconclusive: 35.5 µM [inhibitor, single point] | 
CCCC(C(=O)n1nc(C)cc1C)C(NS(=O)(=O)c1ccc(C)cc1)c1ccccc1 (stereo unspecified) | inconclusive: 25.1 µM [inhibitor, single point] | 
O=S(=O)(Nc1nc2c(s1)CCCC2)c1ccc2ccccc2c1 | inconclusive: 35.5 µM [inhibitor, single point] | 
COc1cc(C(=O)NCC(c2cccs2)S(=O)(=O)c2ccc(F)cc2)cc(OC)c1OC (stereo unspecified) | inconclusive: 17.8 µM [inhibitor, single point] | 
CCOC(=O)c1c(C)[nH]c(CCC(=O)Nc2ccc(C)c(F)c2)c1C |  | inactive: -11.5% [at 46.1 µM]
CCCn1c2c(c(=N)c3c1CCC3)CCCC2 | inconclusive: 0.259 µM [inhibitor, single point] | 
COc1cc2cc(CNc3ccc(C)cc3)c(=O)n(CC(=O)Nc3ccc(F)cc3F)c2cc1OC |  | inactive: 29.1% [at 46.1 µM]
COc1ccc(C2=Cc3ccc(OC(C)=O)cc3OC2)cc1 | inconclusive: 5.62 µM [activator, single point] | 
Cc1ccccc1-c1noc(-c2ccc(O)cc2)n1 | inconclusive: 16.4 µM [inhibitor, single point] | 
Cc1ccc(/C=N/NC(=O)c2cc(C3CC3)nc3ccccc23)o1 | inconclusive: 16.4 µM [inhibitor, partial curve, poor fit] | 
CCOCCCNC(=O)C(c1ccc(C)cc1)N(Cc1ccc2c(c1)OCO2)C(=O)c1ccc(NC(C)=O)cc1 (stereo unspecified) | inconclusive: 35.5 µM [inhibitor, single point] | 
Cc1ccc2nc(N3CCC(C(=O)N4CCN(c5cccc(Cl)c5)CC4)CC3)[nH]c2c1 | inconclusive: 11.2 µM [inhibitor, partial curve, poor fit] | 
O=C(CC(c1ccccc1)c1ccccc1)Nc1ccc(Cl)cn1 | inconclusive: 35.5 µM [inhibitor, single point] | 
Cc1cc(C(=O)Nc2ccccc2C(=O)O)ccc1NC(=O)COc1ccccc1Cl | inconclusive: 1.26 µM [inhibitor, partial curve] | 
Cc1ccc(C2c3[nH]c4ccccc4c3CCN2C(=O)c2cccc(C)c2)cc1 (stereo unspecified) | inconclusive: 10 µM [inhibitor, partial curve, poor fit] | 
Cc1ccc(Cn2nc(C)c(C(=O)NCC(c3cccs3)N3CCOCC3)c2Cl)cc1 (stereo unspecified) | active: 12.6 µM | 

2 consecutive compounds out of the list so far, for reference:
SMILES | Potency | activity change, negative = inhibition
CCOCCCNC(=O)C(c1ccc(C)cc1)N(Cc1ccc2c(c1)OCO2)C(=O)c1ccc(NC(C)=O)cc1 (stereo unspecified) | inconclusive: 35.5 µM [inhibitor, single point] | 
Cc1ccc2nc(N3CCC(C(=O)N4CCN(c5cccc(Cl)c5)CC4)CC3)[nH]c2c1 | inconclusive: 11.2 µM [inhibitor, partial curve, poor fit] | 

The results go on:

SMILES | Potency | activity change, negative = inhibition
O=C1C(=O)c2c(C(=O)c3ccccc3)coc2-c2ccccc21 | inconclusive: 20 µM [inhibitor, partial curve, poor fit] | 
CC1(C)CC(=O)c2cc(C(=O)NC3CCSC3=O)c(=O)n(-c3ccc(Cl)cc3)c2C1 (stereo unspecified) |  | inactive: 21.8%
COc1cc(CCN2C(=O)c3cccc4cccc(c34)C2=O)c(S(=O)(=O)N2CCCCCC2)cc1OC |  | inactive: 29%
COc1ccc(-c2cc(C(=O)OC(C)C(=O)c3ccccc3)c3cccc(Cl)c3n2)cc1 (stereo unspecified) |  | inactive: 20.5% [at 46.1 µM]
CCOC(=O)N1CCN(C(=O)C2CC(c3cc(OC)ccc3OC)=NO2)CC1 (stereo unspecified) |  | inactive: 0.393%
Cc1ccc(C)c(NC(=S)NNc2ccc(F)cc2F)c1 | inconclusive: 6.31 µM [activator, single point] | 
CC1(C)COC(=S)N1CCC#N |  | inactive: 3.69%
Cc1c(Nc2cc(N3CCCC(C)C3)c3nonc3c2[N+](=O)[O-])c(=O)n(-c2ccccc2)n1C (stereo unspecified) |  | inconclusive: 0.866% [activator]
COc1ccc(OC)c(-c2csc(NC(=O)Cc3ccccc3)n2)c1 | inconclusive: 17.8 µM [inhibitor, partial curve, poor fit] | 
Cc1ccccc1Nc1oc(-c2ccccc2)nc1-c1ccccc1F | inconclusive: 1.33 µM [inhibitor, partial curve, poor fit] | 
COC(=O)CSc1nc2c(c(-c3ccco3)c1C#N)CCCC2 |  | inactive: -12.9%
O=C(N/N=C/c1ccccc1Cl)c1cccc(F)c1 | inconclusive: 0.291 µM [activator, full curve, poor fit] | 
O=C(COc1ccc(Cl)cc1)Nc1ccccc1Cl | inconclusive: 12.6 µM [activator, single point] | 
CC(C)Oc1ccc(C(=O)N(Cc2ccco2)c2ccccn2)cc1 |  | inactive: -6.18% [at 46.1 µM]
CC(=O)Nc1ccc(NC(=O)C(C)OC(=O)CC23CC4CC(CC(Br)(C4)C2)C3)cc1 (stereo unspecified) |  | inactive: 0% [at 46.1 µM]
Cc1ccccc1Nc1nc(N)nc(COC(=O)c2ccc(O)cc2)n1 | inconclusive: 25.1 µM [inhibitor, single point] | 
NC(=O)CSc1n[nH]c(=O)n1CCc1ccccc1 |  | inactive: 8.3% [at 46.1 µM]
CSC1=NC2(CCN(C(=O)NC3CCCCC3)CC2)N=C1c1ccc(C)c(C)c1 | inconclusive: 14.1 µM [activator, single point] | 
O=S(=O)(NCC(c1ccc2c(c1)OCO2)N1CCOCC1)c1ccc(Cl)cc1 (stereo unspecified) |  | inactive: 13.2%
CCOC(=O)Cc1nn(Cc2ccccc2)c(=O)c2ccccc12 |  | inactive: -9.52%
CCc1ccccc1NNC(=O)c1snnc1C | inconclusive: 15.8 µM [inhibitor, partial curve, poor fit] | 
O=C(c1cc(-c2ccc(Br)cc2)nc2ccccc12)N1CCN(c2ccccc2O)CC1 | inconclusive: 11.2 µM [inhibitor, partial curve, poor fit] | 

SMILES | Potency | activity change, negative = inhibition
O=[N+]([O-])c1cc(Cl)ccc1-c1nc(-c2ccccc2)no1 | inconclusive: 12.6 µM [inhibitor, single point] | 
CCC(=O)N1CCc2cc(Br)cc(S(=O)(=O)CCC(=O)NCc3ccc(Cl)cc3)c21 | inconclusive: 2.82 µM [inhibitor, full curve] | 
COc1ccc(Cn2c(-c3ccc(Cl)cc3)c[n+]3ccccc23)cc1 | inconclusive: 11.2 µM [inhibitor, single point] | 
COc1ccc(-c2nc(-c3ccc4c(c3)OCO4)[nH]c2-c2ccc(OC)cc2)cc1 | inconclusive: 7.08 µM [inhibitor, single point] | 
O=C1CC(c2ccc3c(c2)OCO3)Sc2nc3ccccc3n21 (stereo unspecified) | inconclusive: 4.61 µM [inhibitor, partial curve] | 
CCCCC(=O)Nc1ccc(C(=O)NCCc2ccc(S(N)(=O)=O)cc2)cc1 | inconclusive: 35.5 µM [inhibitor, single point] | 
CCc1nc2oc3cc(OC)ccc3c(=O)c2c(=O)n1Cc1ccco1 |  | inactive: -5.21%
COc1ccc(NC(=S)NNC(=S)Nc2cccc(C(F)(F)F)c2)cc1 | inconclusive: 35.5 µM [inhibitor, partial curve, poor fit] | 
CC(CC(=O)Nc1ncc([N+](=O)[O-])s1)c1ccccc1 (stereo unspecified) | inconclusive: 35.5 µM [inhibitor, single point] | 
CCN(c1ccccc1)c1nnc(NC(=O)Nc2ccccc2F)s1 |  | inactive: -8.57% [at 46.1 µM]
O=C(CNC(=O)c1cccc(Br)c1)N/N=C/c1cn[nH]c1-c1ccccc1 | inconclusive: 15.8 µM [inhibitor, single point] | 
CCOc1c(Br)cc(CNCc2cccs2)cc1OC | inconclusive: 1 µM [activator, partial curve, poor fit] | 
CCS(=O)(=O)N1Cc2ccccc2CC1C(=O)Nc1nc2ccc(F)cc2s1 (stereo unspecified) | inconclusive: 6.51 µM [activator, single point] | 
COc1ccc(CNc2nc3ccccc3n2C(C)C)c(O)c1 |  | inactive: -20.4%
CCOC(=O)c1ccc(Nc2nc(N3CCOCC3)nc(N3CCOCC3)n2)cc1 | inconclusive: 35.5 µM [activator, single point] | 
Cc1ccc2nc(/C(C#N)=C\c3ccc(N4CCCCC4)c([N+](=O)[O-])c3)[nH]c2c1 | inconclusive: 20.6 µM [inhibitor, single point] | 
Fc1ccc(Nc2c3c(nc4ccccc24)CCC3)cc1 | inconclusive: 11.2 µM [inhibitor, partial curve, poor fit] | 
Cc1ccc(Sc2c(C)nn(C(C)(C)C)c2OC(=O)C(C)(C)C)cc1 |  | inactive: 9.3% [at 46.1 µM]
CCOc1ccc(NC(=O)C(Cc2ccccc2)N2C(=O)c3cccc4cccc(c34)C2=O)cc1 (stereo unspecified) | inconclusive: 35.5 µM [inhibitor, single point] | 
Cc1ccsc1C1Nc2ccc3ncccc3c2C2=C1C(=O)CCC2 (stereo unspecified) | inconclusive: 0.82 µM [inhibitor, full curve, poor fit] | 
NC(Cc1nc2ccccc2[nH]1)c1ccc(Cl)cc1 (stereo unspecified) | inconclusive: 35.5 µM [inhibitor, single point] | 
COc1cc(C)ccc1NC(=O)Cc1csc(NC(=O)Nc2ccccc2OC)n1 | inconclusive: 22.4 µM [inhibitor, single point] | 

— PubChem BioAssay AID540256 (National Center for Advancing Translational Sciences (NCATS), 2011)
